Screen size: about 53,000 sequences; about 3,700 (7%) were called active.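 Rule for the calls: active = gene knockdowns whose robust z-score for IL-1 alpha signal is at least 2 or at most -2, so actives lie on both sides; inactive = the rest.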 Some of the results follow.

The nature of the experiment: Components of the Cytosolic LPS Sensing Pathway: Gene Identification via Genome-wide siRNA Screen.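 Note: robust z of the log signal after scaling to non-targeting control siRNA wells of the plate.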 As to conditions: RAW264.7 macrophages, IL-1a HTRF, actives lie on both sides, screened at 100 nM (by protocol), cells primed 5 h with Pam3CSK4 first. The essentials:
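Knockdown: 100 nM siRNA, 48h, RAW264.7. Stimulation: Pam3CSK4 5 h, then LipidA via TransIT-TKO 24 h. Output: supernatant IL-1a HTRF, negative-control-normalized, log robust z-score; viability by CellTiter-Glo.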
For orientation: Time-resolved FRET reads energy transfer from a long-lived donor to a nearby acceptor.
Regarding GGAGUUCCAGCUGUUGCUGTT against Erfe, the z-score is inactive: 0.646.
As to GGGAGGCUCUGGUGAACAATT against Cyp2b13, the z-score was inactive: 0.681.
On to GGAUGGGAAGGUGAUUGUCTT against Gnb5, for which the z-score is inactive: 1.
Consider GCAUUUCCUAGUGUCUAUUTT against Tmem139, for which the z-score was inactive: 0.946.
Regarding GGAAUGUUCACUGACAAAGTT against Gemin8, the z-score was inactive: 1.18.
Take GGUCCGAAAGGCAGCUAUATT against Fcer1g: the z-score is active: -2.17.
Take CCGACUAAGAAUCAGAGAATT against Ccdc77: the z-score is inactive: 1.25.
GGAUAAGAGAAAAACAGAATT against Ect2: the z-score was inactive: 0.141.
In the case of GGAGAAGAGAAAGAUUCUUTT against Dhx9, the z-score is inactive: 0.724.
Regarding GCAUUCAUACAUGUAACAGTT against Wdr70, the z-score was inactive: 0.336.
The result for GUAGAGUGAUGAGAGGCCUTT against Vmn1r-ps8 reads inactive: -0.475.
Take CCUUAAGCAGAGUUCAAAGTT against Timm22: the z-score was inactive: 0.197.
Under GGAGAUGAAGUCAUUGAAUTT against Casq1 stands inactive: -0.561.
On to GGGCUACAGCCUUGAAAACTT against Lyzl4, for which the z-score is inactive: -0.0362.
For the sequence UCCAUCGACUGGGACUCUCTT against Nxpe5, the z-score was inactive: 0.463.
With CGGGUAAUAAGGAUUUGGGTT against Cadm4, the z-score was active: 2.05.
Regarding CUAUGUGGUCACAAUAGAGTT against Olfr1360, the z-score was inactive: 0.411.
Under GGAAAGGGAGAUUUGUAAGTT against Hoxc4 stands inactive: 0.837; under GCUGUUCUGCAAAACUGGATT against Rbpms, inactive: -1.36; under GGUAUGUUUACCAUAGCUCTT against Tbx18, inactive: 0.503.
Under CGAGACAAAGAAAGCAAGUTT against Trappc8 stands inactive: -0.937.
As for GGAUCUGGACUUAAUGCUCTT against Tfeb, the z-score was inactive: -0.383.
For the sequence GGAUGUUACUCCCUCAAAUTT against Tmbim7, the z-score was inactive: 1.01.
For GCCACUACAUAUAAACAUCTT against Spag1, the z-score was inactive: -0.0903.
As for GCAUUAUUCUGAGGACACATT against Fhod3, the z-score was inactive: 0.569.
On to GGCAUACCGGAAACUUGCCTT against Dnajb13, for which the z-score is inactive: -0.266.
As for CCACCUUUCUCACAGAUAATT against Myo3b, the z-score is inactive: 1.43.
With GCAAGAUACCAAAUGCAUATT against Zfp316, the z-score was inactive: 0.198.
In the case of GGAAGAAAAGACUUAUCGUTT against Jkamp, the z-score was inactive: -0.663.
In the case of GGGAGAAGCAGAAAGAACUTT against Rundc1, the z-score is inactive: -0.342.
On to GGAUCGAGACAAGGCCAAATT against Fes, for which the z-score was active: 3.22.
On to CCAAUGAUUUCCUGCUAAATT against Lst1, for which the z-score is active: 3.21.
Take CGGGAAGCUAUCAUCAAAATT against Rgs13: the z-score was inactive: 0.12.
On to CGAAAUUUACAGGAGAUCCTT against Nup93, for which the z-score is inactive: 0.0497.
The result for GGAAUACUGCUACAAAUGATT against Vav1 reads inactive: -0.95; that for GGUGGCUUCAGUAAGUUCCTT against Dusp6, inactive: 0.766; that for GCAUCCACUAUGGAGAAACTT against Ect2, inactive: -1.25.
For the sequence GGUUGUAAAGGAAGAGAAGTT against Lyve1, the z-score was inactive: 0.397.
In the case of GGAAUCAUAUCAGAAACUATT against Pde4b, the z-score is inactive: -0.475.
For CCCACUUCUCAGAUGAAAUTT against Tut4, the z-score was inactive: -1.33.
In the case of GCCAGUCCAAAGCUUCAAATT against Eif3b, the z-score was inactive: 0.378.
Regarding GGCCAUCUUUGUUUAAAACTT against Ttc5, the z-score is inactive: -0.0587.
Under GGACGUGUGCCAGACUAAATT against Egfl6 stands inactive: 1.41; under GGUCUCAUAUCCUCUUUGGTT against Pex11a, inactive: -1.87.
Under GGAUUAUGAUCCAGAAUUCTT against Omd stands active: 2.96; under GGAACAGGUACUAGAAGUATT against Armh3, inactive: 1.69.
The result for GCCUUGGAUGAAAAGGUAATT against Ppfia2 reads inactive: -1.46.
Take GGUGGUAUCGGUUUUCUACTT against Olfr1509: the z-score was inactive: 0.996.
Turning to GGCCGGCCAGAUAAAGAAATT against Cavin1, the z-score was inactive: 0.683.
In the case of GGCAAGAAUCAAGGAGAGATT against Nek1, the z-score is inactive: -1.27.
Consider GGGAUCCAUCCUCAUCUCATT against Oas1h, for which the z-score is inactive: 1.68.
As for CCCAGUAUGGUCCAUGAAGTT against Zfp821, the z-score was inactive: -1.61.
For GGUCAGAUGUGGAGAAAGGTT against Ufd1, the z-score is inactive: -0.628.
The result for GGCGAGCAUCGCUAUUGACTT against Zcrb1 reads inactive: 0.734; that for GCCUAGGGAGGUGUAGAAUTT against Marveld1, inactive: 0.486.
In the case of GCUCCUAAAAGAACAGUCGTT against Cog3, the z-score was inactive: -0.275.
In the case of GAAUUUUUCAGCUCUGUUUTT against Tas2r117, the z-score is inactive: -1.04.
Consider GGAUUUCUACCAGCUCGUGTT against Pop5, for which the z-score was inactive: 1.62.
Turning to GGUUCAUGGAGAAGAAUCUTT against Ankzf1, the z-score was inactive: 0.153.
Turning to GGAUCUUUUCGUGUCCUGCTT against Pik3ap1, the z-score is inactive: -0.78.
Regarding CCCAUGGGAAGUUCAUCUCTT against Olfr123, the z-score was inactive: 0.275.
Take GGUCACAAAGAAGAAUCACTT against Heg1: the z-score is active: -2.31.
The result for CGGUACCUUGUACAUGGUUTT against Ptprn2 reads inactive: -0.0955; that for GGAACAUCUGCAUCUGGAUTT against Adi1, inactive: -0.36; that for GGUCAAUGCUGUUAAGAAATT against Sart1, inactive: -1.84.
As to CCCAUACUAUGCCAGGACATT against Foxi2, the z-score was inactive: 1.43.
GGAUGAAAACACUGAAUACTT against Olfr644: the z-score is inactive: -0.714.
For GCCACCUCCUACCAAAUGUTT against Sprr4, the z-score is inactive: -1.
As for “UUGGAGAGAAGCCUAUAACTT against 4930451I11Rik”, the z-score was inactive: 0.231.
For the sequence CCAUGGUAGUUAAAAAUGUTT against Rbm25, the z-score is inactive: -0.461.
Consider GGAGAAAGAUGAAGUCUUUTT against Sav1, for which the z-score was inactive: -1.62.
On to GGUUAUAAAACUAUGGAACTT against Map2k5, for which the z-score is inactive: 0.133.
The result for GGUGCUGCUAGUGAACAAGTT against E2f4 reads active: 5.64; that for GGAGAUGCAUACCAAAGAUTT against Cdrt4, inactive: 0.582.
GGAUGACGGUGUCAUGUGCTT against Nlrc3: the z-score was inactive: -0.3.
Take GCCAACCAGCAUUUUUGACTT against Lypd6b: the z-score was inactive: 0.0427.
Under CGAUUUUUUUGCCCUCCUCTT against Rbpj stands inactive: 0.487.
Regarding GAGUUGUCCUCUUCACCAUTT against Olfr483, the z-score was inactive: -1.52.
Take GGUGAAUUGAAGCAGUCCUTT against Ptgdr2: the z-score was inactive: 0.282.
Take GGUUGAGUGGCAUUUUUUATT against Ice1: the z-score is inactive: -0.822.
For GCGUGAGGAUGUAGACUACTT against Mmp12, the z-score is inactive: 0.699.
With GGGUGUAAGACUGUGUUUGTT against Enox1, the z-score was inactive: 0.95.
In the case of GGAGAAAUCAAACACAAGUTT against Slco5a1, the z-score was inactive: 1.4.
Under GCUAUGGGACUUAGGAAGGTT against Paqr6 stands inactive: 0.74; under GCAGAGCAUGCCUUACUGUTT against Eif4ebp1, active: 4.39; under CGGUACAAAUGAUUUCUGATT against Pcolce2, active: 2.04.
GGCACUUUGUUUAGGCAAATT against Tcstv1: the z-score is inactive: -1.51.
As to AAACCUGUCGUAAAAGCUGTT against Mt4, the z-score was inactive: 1.64.
In the case of GCUGUACACAAGUUGACCCTT against Fndc3a, the z-score was inactive: 0.526.
In the case of GGUCCUGACACAUUCUUACTT against Olfr571, the z-score is inactive: -0.0548.
For GCCCAGAGUUACGAGUAUGTT against Aacs, the z-score is active: 2.23.
Turning to GGAAAGGUAUGAGUGAAGATT against Ifi205, the z-score is inactive: -0.538.
Regarding GGAGAAAGUGUCCUCUGUGTT against Olfr924, the z-score is active: -2.41.
Turning to GCAUGGUUUAAUGGCUCGGTT against Atpsckmt, the z-score was inactive: -1.93.
On to GGAAAGGAACUAGCAACGATT against Art3, for which the z-score was inactive: -0.642.
Take CCCACUCUGUUCAGAGAGUTT against Bud23: the z-score was inactive: -0.645.
Take GCAUACUUGUUUUAGCUAATT against Ier3ip1: the z-score was inactive: -1.02.
The result for GCAGCUAGCAACAUAGUAUTT against Bud23 reads inactive: 1.48; that for GGGACACAAAGACACCGUGTT against Ift122, inactive: 1.04.
With GGCAUUUUGAAAACAAGGUTT against Cox7a2, the z-score was inactive: -0.473.
With GGCCUUGUUUUCAUGCCUGTT against Acsm2, the z-score is inactive: -0.179.
Consider CGAUCUACAUCGAAUAAAUTT against Sap130, for which the z-score is inactive: 1.5.
Consider GGAGGAAGAUGAGUUCUACTT against Vps72, for which the z-score is inactive: 0.757.
For the sequence GGUAUUUGAUGGUCACAAATT against Rtn3, the z-score was inactive: -0.515.
The result for CCGAAUUCCAACCUAGAGCTT against Yipf5 reads inactive: -1.38; that for GCCACGAUAAUUCAGGAGUTT against Aurkc, active: 2.27.
The result for GGAGCUUGAAGGAUGAGGATT against Plaur reads inactive: -1.41; that for GCUGCACACUGGAAUCACATT against Lonrf2, inactive: -1.99.
